Experimental data: publication PMC10607737
These are yes or no findings as the source states them, for the method shown. In cells and extracts the contact can be indirect. Some entries that bind do so weakly or less than the wild type. Sequences can lack the tags named with a protein.

Protein sequences, listed by entry. Tags and fused reporters are not part of them.
UniProt Q8VI67: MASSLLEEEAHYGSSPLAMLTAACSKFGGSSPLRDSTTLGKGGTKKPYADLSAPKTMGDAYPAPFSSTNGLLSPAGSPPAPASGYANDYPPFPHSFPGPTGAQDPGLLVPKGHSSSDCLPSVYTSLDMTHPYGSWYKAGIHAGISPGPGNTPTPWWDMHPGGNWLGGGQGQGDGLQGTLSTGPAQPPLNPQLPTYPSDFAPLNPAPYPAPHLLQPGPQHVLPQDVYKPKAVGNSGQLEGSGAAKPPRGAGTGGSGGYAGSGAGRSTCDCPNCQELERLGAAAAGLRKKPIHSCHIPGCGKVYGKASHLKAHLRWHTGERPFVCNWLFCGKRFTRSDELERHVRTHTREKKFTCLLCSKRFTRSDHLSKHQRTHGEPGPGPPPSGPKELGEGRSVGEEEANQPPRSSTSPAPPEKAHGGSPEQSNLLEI

Assays:
GST-USP17 = biological target: T1, GST-USP17 (UniProt Q6R6M4); assay: pull-down; GST or GST-USP17 on glutathione-Sepharose beads incubated with whole-cell lysate of HEK 293 cells transfected with HA-Osx, 4 °C; washed with 20 mM HEPES pH 7.4, 120 mM NaCl, 10% glycerol, 2 mM EDTA; detected by IB; only the target purified
T1 sequence: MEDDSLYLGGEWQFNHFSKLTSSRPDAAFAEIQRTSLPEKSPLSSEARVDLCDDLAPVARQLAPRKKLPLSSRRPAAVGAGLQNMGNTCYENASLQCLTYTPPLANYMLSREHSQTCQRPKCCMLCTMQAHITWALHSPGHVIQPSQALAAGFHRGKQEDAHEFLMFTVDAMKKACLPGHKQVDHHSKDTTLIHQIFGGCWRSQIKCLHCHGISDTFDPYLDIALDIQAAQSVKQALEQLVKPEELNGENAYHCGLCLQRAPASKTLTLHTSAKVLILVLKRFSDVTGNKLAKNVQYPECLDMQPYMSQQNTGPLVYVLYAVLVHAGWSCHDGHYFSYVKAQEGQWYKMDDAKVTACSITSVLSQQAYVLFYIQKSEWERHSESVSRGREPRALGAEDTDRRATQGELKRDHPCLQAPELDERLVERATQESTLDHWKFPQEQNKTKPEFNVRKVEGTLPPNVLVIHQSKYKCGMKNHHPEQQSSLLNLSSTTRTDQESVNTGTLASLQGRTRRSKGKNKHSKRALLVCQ

Myc-USP17 wild type = biological target: T2, Myc-USP17 wild type (UniProt Q6R6M4); assay: co-IP; HEK 293 cells co-transfected with HA-Osx and Myc-USP17; whole cell lysates incubated with appropriate antibodies and Protein A Sepharose CL-4B; detected by IB; lysis buffer 5 mM HEPES pH 7.5, 150 mM NaCl, 1% NP-40, 0.25% sodium deoxycholate
T2 sequence: T1 sequence

binding (GST-USP17): binds
binding (Myc-USP17 wild type): binds
Substance: HA-Osx (Osterix) (from UniProt Q8VI67 1-428)
